{"sequences": {"note": "Protein sequences, listed by entry. Tags and fused reporters are not part of them. Lines headed by an entry give the natural chain unless they say otherwise; changes in a name come on top.", "UniProt Q9Y6Y8": "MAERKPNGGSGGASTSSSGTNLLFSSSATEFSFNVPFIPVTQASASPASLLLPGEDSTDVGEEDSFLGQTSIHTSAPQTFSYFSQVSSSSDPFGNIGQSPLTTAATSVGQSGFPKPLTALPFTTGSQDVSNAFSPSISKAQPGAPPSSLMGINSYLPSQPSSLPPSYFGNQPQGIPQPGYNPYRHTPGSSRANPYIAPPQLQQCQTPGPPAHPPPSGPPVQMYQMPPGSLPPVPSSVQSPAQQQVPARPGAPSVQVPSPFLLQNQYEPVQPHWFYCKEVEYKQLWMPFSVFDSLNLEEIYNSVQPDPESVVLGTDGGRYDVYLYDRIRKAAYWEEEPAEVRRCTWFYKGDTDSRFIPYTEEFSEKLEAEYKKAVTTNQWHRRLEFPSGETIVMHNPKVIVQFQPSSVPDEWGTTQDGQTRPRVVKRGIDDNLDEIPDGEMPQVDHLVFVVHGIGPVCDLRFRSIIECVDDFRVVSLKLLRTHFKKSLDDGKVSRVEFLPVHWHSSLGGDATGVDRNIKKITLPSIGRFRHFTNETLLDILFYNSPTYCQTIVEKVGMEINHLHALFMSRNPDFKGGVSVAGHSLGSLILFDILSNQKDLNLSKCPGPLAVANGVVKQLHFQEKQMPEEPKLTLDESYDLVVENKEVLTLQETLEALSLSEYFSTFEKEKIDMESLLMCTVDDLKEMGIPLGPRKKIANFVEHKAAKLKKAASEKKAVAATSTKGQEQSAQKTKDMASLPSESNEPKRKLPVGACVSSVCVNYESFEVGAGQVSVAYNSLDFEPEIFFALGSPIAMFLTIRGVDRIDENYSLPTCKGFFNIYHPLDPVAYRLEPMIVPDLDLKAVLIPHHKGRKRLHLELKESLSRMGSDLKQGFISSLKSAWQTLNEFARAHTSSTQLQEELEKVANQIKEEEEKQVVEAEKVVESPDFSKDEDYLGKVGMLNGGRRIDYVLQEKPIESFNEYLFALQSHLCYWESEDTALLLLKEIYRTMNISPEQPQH", "UniProt Q9NRG7": "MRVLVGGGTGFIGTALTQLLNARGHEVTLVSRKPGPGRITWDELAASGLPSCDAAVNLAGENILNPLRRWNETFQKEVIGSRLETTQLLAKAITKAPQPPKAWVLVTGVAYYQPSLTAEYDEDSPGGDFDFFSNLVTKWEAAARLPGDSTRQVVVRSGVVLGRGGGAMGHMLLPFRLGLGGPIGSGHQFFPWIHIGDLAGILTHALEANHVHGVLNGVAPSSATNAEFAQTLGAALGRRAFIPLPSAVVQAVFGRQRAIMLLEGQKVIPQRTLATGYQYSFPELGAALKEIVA", "UniProt O94855": "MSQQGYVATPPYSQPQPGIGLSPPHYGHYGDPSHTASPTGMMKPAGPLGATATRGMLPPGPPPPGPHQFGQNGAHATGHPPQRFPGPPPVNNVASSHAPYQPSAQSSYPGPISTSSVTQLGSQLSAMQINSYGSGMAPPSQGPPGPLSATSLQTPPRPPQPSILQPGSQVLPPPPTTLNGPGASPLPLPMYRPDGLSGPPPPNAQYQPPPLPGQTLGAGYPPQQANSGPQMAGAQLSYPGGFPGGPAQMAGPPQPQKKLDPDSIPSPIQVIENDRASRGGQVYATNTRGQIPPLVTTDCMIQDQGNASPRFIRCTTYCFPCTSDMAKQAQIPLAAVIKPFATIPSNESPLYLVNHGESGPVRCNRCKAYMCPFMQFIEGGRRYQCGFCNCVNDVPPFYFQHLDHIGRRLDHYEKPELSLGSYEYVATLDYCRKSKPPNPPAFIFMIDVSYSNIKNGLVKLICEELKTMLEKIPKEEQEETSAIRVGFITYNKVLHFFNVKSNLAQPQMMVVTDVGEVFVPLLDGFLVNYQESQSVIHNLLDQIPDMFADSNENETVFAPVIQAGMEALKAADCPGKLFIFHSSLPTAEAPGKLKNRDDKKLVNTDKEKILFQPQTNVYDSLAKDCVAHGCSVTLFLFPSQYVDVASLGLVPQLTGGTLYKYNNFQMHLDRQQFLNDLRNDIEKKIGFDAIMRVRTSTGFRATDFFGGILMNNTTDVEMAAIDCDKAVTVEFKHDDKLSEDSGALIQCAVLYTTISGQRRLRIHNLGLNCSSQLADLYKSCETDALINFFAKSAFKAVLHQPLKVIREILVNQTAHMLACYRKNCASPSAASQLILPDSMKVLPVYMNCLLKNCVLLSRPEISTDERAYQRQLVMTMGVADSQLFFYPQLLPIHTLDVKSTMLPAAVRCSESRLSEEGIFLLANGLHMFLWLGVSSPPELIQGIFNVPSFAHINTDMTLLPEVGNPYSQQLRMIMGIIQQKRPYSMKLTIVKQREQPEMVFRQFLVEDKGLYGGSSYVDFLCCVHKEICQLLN", "UniProt Q9Y3B4": "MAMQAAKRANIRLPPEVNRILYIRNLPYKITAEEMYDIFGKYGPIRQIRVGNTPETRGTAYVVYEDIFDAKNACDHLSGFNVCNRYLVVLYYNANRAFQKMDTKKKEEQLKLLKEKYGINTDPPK", "UniProt Q8NBW4": "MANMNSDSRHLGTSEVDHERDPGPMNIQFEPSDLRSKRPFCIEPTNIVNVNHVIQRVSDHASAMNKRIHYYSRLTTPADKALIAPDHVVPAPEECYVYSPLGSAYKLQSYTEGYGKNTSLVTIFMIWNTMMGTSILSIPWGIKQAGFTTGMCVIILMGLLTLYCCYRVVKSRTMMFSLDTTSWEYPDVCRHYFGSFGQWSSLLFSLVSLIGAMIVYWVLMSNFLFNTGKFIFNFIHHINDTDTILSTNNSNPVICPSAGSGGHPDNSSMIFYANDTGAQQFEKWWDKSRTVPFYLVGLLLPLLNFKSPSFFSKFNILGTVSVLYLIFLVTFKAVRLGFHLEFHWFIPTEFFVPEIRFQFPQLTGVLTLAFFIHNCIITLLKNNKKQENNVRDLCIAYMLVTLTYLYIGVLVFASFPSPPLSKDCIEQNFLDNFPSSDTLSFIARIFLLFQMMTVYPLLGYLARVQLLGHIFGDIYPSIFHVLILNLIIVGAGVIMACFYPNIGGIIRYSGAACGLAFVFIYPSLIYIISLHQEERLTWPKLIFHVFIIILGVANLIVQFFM", "UniProt O95104": "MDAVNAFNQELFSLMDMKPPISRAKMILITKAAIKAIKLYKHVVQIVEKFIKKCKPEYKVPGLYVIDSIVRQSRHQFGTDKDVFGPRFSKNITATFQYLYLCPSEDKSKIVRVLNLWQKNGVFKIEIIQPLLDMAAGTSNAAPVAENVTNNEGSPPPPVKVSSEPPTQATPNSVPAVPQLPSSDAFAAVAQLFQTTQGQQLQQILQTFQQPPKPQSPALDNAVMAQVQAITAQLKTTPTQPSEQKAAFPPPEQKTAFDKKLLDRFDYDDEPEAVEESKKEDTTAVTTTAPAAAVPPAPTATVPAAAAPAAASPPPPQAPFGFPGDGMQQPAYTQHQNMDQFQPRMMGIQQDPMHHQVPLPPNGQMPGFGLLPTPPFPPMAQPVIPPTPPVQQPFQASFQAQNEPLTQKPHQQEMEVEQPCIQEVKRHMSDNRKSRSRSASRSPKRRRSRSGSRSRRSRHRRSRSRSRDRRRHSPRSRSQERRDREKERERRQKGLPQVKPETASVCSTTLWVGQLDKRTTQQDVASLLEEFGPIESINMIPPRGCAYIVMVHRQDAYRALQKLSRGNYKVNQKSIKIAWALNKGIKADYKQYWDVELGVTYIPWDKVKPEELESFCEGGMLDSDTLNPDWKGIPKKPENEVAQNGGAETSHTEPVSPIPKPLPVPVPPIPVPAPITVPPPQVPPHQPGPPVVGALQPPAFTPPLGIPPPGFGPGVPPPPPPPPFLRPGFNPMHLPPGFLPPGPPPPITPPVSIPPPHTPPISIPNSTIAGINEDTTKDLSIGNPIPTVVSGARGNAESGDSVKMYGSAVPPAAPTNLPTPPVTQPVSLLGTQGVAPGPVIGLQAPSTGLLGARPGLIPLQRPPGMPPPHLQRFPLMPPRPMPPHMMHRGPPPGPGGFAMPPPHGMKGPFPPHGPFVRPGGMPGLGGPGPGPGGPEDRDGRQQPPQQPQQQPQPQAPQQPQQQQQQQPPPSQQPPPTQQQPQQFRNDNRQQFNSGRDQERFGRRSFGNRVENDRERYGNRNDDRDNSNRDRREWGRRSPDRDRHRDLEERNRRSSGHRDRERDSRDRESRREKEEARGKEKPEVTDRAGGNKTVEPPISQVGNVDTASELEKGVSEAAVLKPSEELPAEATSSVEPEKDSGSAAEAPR", "UniProt P84103": "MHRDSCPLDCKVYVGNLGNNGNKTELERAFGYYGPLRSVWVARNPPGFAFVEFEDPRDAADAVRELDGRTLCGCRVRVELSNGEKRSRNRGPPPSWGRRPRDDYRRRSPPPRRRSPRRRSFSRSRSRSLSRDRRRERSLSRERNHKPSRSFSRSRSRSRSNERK", "UniProt Q9NZV5, whole entry": "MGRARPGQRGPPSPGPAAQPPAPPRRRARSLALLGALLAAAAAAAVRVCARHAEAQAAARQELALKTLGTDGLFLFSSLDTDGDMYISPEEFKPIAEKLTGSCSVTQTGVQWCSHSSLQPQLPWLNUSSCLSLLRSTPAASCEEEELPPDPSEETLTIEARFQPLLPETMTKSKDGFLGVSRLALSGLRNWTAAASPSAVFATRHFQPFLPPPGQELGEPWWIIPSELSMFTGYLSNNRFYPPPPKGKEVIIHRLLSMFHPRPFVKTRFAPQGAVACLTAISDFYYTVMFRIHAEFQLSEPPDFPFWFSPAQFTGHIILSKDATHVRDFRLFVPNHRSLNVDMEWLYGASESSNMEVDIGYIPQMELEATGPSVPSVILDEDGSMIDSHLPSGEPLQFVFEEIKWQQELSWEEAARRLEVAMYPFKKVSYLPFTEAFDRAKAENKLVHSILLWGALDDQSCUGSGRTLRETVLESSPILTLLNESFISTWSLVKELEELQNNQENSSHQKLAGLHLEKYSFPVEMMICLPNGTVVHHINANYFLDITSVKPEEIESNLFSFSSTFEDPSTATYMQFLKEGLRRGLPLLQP", "UniProt Q8NBX0": "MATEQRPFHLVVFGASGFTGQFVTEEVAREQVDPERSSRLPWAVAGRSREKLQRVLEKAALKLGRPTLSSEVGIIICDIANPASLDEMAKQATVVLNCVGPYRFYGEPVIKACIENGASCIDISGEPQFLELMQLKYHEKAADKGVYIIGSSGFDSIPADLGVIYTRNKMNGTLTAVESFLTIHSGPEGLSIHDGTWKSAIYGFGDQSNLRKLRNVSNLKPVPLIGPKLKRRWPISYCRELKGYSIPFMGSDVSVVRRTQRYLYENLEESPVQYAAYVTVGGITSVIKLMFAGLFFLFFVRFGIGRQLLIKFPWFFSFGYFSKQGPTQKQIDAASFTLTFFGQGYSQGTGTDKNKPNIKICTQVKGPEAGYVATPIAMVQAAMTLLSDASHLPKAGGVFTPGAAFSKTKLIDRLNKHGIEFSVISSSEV", "UniProt P05141": "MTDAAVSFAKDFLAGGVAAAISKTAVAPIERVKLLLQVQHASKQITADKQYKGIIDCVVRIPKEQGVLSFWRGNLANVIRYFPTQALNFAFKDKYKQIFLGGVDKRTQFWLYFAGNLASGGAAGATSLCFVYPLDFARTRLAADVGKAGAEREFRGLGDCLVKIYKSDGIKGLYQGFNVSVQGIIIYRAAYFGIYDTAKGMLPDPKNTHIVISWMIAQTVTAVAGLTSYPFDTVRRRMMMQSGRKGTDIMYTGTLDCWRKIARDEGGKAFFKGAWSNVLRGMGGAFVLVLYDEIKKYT", "UniProt Q9Y6M5": "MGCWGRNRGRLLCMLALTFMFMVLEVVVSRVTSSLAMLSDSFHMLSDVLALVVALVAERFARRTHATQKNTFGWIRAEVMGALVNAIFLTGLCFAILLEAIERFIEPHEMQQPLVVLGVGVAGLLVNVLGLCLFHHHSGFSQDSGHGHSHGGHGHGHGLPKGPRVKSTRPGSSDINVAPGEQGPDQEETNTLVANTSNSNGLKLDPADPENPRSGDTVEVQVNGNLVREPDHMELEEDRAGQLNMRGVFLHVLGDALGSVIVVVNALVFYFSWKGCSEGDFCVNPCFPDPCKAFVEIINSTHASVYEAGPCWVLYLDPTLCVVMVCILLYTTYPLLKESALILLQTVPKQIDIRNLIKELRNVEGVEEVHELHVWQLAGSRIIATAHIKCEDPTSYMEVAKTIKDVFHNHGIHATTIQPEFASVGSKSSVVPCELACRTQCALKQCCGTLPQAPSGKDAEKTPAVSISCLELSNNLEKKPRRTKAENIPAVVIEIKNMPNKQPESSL", "UniProt Q16181": "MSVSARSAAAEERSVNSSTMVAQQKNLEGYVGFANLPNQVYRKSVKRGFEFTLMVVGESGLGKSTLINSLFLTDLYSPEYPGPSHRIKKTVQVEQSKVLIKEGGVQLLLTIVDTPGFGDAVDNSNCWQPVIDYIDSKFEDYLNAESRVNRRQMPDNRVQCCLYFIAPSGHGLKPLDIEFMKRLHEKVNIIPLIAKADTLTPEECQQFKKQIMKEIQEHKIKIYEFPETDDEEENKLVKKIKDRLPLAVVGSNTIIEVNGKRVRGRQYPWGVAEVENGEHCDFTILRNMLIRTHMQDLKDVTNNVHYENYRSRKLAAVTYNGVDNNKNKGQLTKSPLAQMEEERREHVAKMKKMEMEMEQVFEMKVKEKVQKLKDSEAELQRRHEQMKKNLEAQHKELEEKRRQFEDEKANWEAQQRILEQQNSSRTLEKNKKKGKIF"}, "source": "the supplement of paper PMC7666118", "note": "The list shows a part of the results."}
{"compound": "COc1ccc(Cn2ccc3ccc(C(=O)NO)cc32)cc1", "test": "dose-dependent thermal stabilisation call (2D-TPP, DLPTP, 10% FDR) (binary (1 = stabilised)); higher = stabilised by the compound", "conditions": "system: HL-60 intact cells; concentration range 0.04-10 µM"}
{"target": "SENP8 (UniProt Q96LD8)", "dose-dependent thermal stabilisation call": "inactive: 0"}
{"target": "SEC23A (UniProt Q15436)", "dose-dependent thermal stabilisation call": "inactive: 0"}
{"target": "SLC1A5 (UniProt Q15758)", "dose-dependent thermal stabilisation call": "inactive: 0"}
{"target": "SFRS4 (UniProt Q08170)", "dose-dependent thermal stabilisation call": "inactive: 0"}
{"target": "SEC23IP (UniProt Q9Y6Y8)", "dose-dependent thermal stabilisation call": "inactive: 0"}
{"target": "SHMT2 (UniProt P34897)", "dose-dependent thermal stabilisation call": "inactive: 0"}
{"target": "SDR39U1 (UniProt Q9NRG7)", "dose-dependent thermal stabilisation call": "inactive: 0"}
{"target": "SEC24D (UniProt O94855)", "dose-dependent thermal stabilisation call": "inactive: 0"}
{"target": "SFRS14 (UniProt Q8IX01)", "dose-dependent thermal stabilisation call": "inactive: 0"}
{"target": "SF3B14 (UniProt Q9Y3B4)", "dose-dependent thermal stabilisation call": "inactive: 0"}
{"target": "SLC38A9 (UniProt Q8NBW4)", "dose-dependent thermal stabilisation call": "inactive: 0"}
{"target": "SFRS15 (UniProt O95104)", "dose-dependent thermal stabilisation call": "inactive: 0"}
{"target": "SLC25A22 (UniProt Q9H936)", "dose-dependent thermal stabilisation call": "inactive: 0"}
{"target": "SETD7 (UniProt Q8WTS6)", "dose-dependent thermal stabilisation call": "inactive: 0"}
{"target": "SFRS3 (UniProt P84103)", "dose-dependent thermal stabilisation call": "inactive: 0"}
{"target": "SEPT1 (UniProt Q8WYJ6)", "dose-dependent thermal stabilisation call": "inactive: 0"}
{"target": "SC65 (UniProt Q92791)", "dose-dependent thermal stabilisation call": "inactive: 0"}
{"target": "SEPN1 (UniProt Q9NZV5)", "dose-dependent thermal stabilisation call": "inactive: 0"}
{"target": "SCCPDH (UniProt Q8NBX0)", "dose-dependent thermal stabilisation call": "active: 1"}
{"target": "SEPT6 (UniProt Q14141)", "dose-dependent thermal stabilisation call": "inactive: 0"}
{"target": "SLC25A5 (UniProt P05141)", "dose-dependent thermal stabilisation call": "inactive: 0"}
{"target": "SLC38A1 (UniProt Q9H2H9)", "dose-dependent thermal stabilisation call": "inactive: 0"}
{"target": "SIN3A (UniProt Q96ST3)", "dose-dependent thermal stabilisation call": "inactive: 0"}
{"target": "SERGEF (UniProt Q9UGK8)", "dose-dependent thermal stabilisation call": "inactive: 0"}
{"target": "SBF1 (UniProt O95248)", "dose-dependent thermal stabilisation call": "inactive: 0"}
{"target": "SLC25A46 (UniProt Q96AG3)", "dose-dependent thermal stabilisation call": "inactive: 0"}
{"target": "SLC35D1 (UniProt Q9NTN3)", "dose-dependent thermal stabilisation call": "inactive: 0"}
{"target": "SF3A2 (UniProt Q15428)", "dose-dependent thermal stabilisation call": "inactive: 0"}
{"target": "SET (UniProt Q01105)", "dose-dependent thermal stabilisation call": "active: 1"}
{"target": "SLC30A1 (UniProt Q9Y6M5)", "dose-dependent thermal stabilisation call": "inactive: 0"}
{"target": "SETMAR (UniProt Q53H47)", "dose-dependent thermal stabilisation call": "inactive: 0"}
{"target": "SLC25A3 (UniProt Q00325)", "dose-dependent thermal stabilisation call": "inactive: 0"}
{"target": "SERINC1 (UniProt Q9NRX5)", "dose-dependent thermal stabilisation call": "inactive: 0"}
{"target": "SLC2A5 (UniProt P22732)", "dose-dependent thermal stabilisation call": "inactive: 0"}
{"target": "SF3B2 (UniProt Q13435)", "dose-dependent thermal stabilisation call": "inactive: 0"}
{"target": "SCAMP2 (UniProt O15127)", "dose-dependent thermal stabilisation call": "inactive: 0"}
{"target": "SEPT7 (UniProt Q16181)", "dose-dependent thermal stabilisation call": "inactive: 0"}
{"target": "SEC31A (UniProt O94979)", "dose-dependent thermal stabilisation call": "inactive: 0"}
